Measurements: article PMC10989928, “Cell division factor ZapE regulates Pseudomonas aeruginosa biofilm formation by impacting the pqs quorum sensing system” (mLife, 2023)
Results are given in words; binding and its absence hold for the method and conditions named. Binding seen in cells or lysates may run through a third protein. Here binding means that the protein was enriched with, or labelled near, the bait; the list need not be complete.

Amino acid sequences for entries named in this document (tags omitted).
UniProt P47204: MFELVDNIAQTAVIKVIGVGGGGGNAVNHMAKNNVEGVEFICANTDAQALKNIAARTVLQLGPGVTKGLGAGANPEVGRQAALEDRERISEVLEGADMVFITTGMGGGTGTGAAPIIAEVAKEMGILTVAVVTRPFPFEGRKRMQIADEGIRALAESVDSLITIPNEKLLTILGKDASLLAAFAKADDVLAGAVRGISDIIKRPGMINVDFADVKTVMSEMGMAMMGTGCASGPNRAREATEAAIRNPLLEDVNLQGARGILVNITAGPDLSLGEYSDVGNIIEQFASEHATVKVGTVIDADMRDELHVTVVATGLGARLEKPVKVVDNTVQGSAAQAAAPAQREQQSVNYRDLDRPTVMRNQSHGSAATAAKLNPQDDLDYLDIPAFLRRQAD

Target: ZapE (PA4438) fused to GFP, expressed from p20T-zapE-gfp in P. aeruginosa ΔzapE (P. aeruginosa PAO1) (UniProt Q9HVX7)
Assay: affinity purification with mass spectrometry; ZapE-GFP expressed in ΔzapE; total proteins incubated with GFP-trap Agarose; LC-MS/MS; GFP alone (p20T-gfp) as control; Mascot score ≥ 100 as threshold

For “FtsZ, cell division protein, endogenous in P. aeruginosa (from UniProt P47204 1-394)”, the binding was “binds”.

B1: PhzM, phenazine-1-carboxylate N-methyltransferase, endogenous in P. aeruginosa (enzyme, UniProt Q9HWH2 1-334)
chain: MNNSNLAAARNLIQVVTGEWKSRCVYVATRLGLADLIESGIDSDETLAAAVGSDAERIHRLMRLLVAFEIFQGDTRDGYANTPTSHLLRDVEGSFRDMVLFYGEEFHAAWTPACEALLSGTPGFELAFGEDFYSYLKRCPDAGRRFLLAMKASNLAFHEIPRLLDFRGRSFVDVGGGSGELTKAILQAEPSARGVMLDREGSLGVARDNLSSLLAGERVSLVGGDMLQEVPSNGDIYLLSRIIGDLDEAASLRLLGNCREAMAGDGRVVVIERTISASEPSPMSVLWDVHLFMACAGRHRTTEEVVDLLGRGGFAVERIVDLPMETRMIVAARA
In the case of B1, the binding is reported as “binds”.

B2: PqsH, endogenous in P. aeruginosa (enzyme, UniProt Q9I0Q0 1-382)
chain: MTVLIQGAGIAGLALAREFTKAGIDWLLVERASEIRPIGTGITLASNALTALSSTLDLDRLFRRGMPLAGINVYAHDGSMLMSMPSSLGGNSRGGLALQRHELHAALLEGLDESRIRVGVSIVQILDGLDHERVTLSDGTVHDCSLVVGADGIRSSVRRYVWPEATLRHSGETCWRLVVPHRLEDAELAGEVWGHGKRLGFIQISPREMYVYATLKVRREEPEDEEGFVTPQRLAAHYADFDGIGASIARLIPSATTLVHNDLEELAGASWCRGRVVLIGDAAHAMTPNLGQGAAMALEDAFLLARLWCLAPRAETLILFQQQREARIEFIRKQSWIVGRLGQWESPWSVWLRNTLVRLVPNASRRRLHQRLFTGVGEMAAQ
In the case of B2, the binding is reported as “binds”.
